{
  "source": "patent US20230142981A1",
  "about": "“METHOD FOR IDENTIFING A MARKER FOR A BIOLOGICAL INTERACTION” (ARPEGGIO BIOSCIENCES, INC., priority 2020, published 2023)",
  "system": "breast cancer cell line (MCF7)",
  "assay": "nascent RNA sequencing (SNAP-seq) of MCF7 cells after estradiol treatment",
  "format": "cell-based",
  "settings": "MCF7, 100 nM estradiol",
  "method": "To assess the sensitivity and dynamic range of the nascent RNA sequencing assay in gauging a cellular response to a stimulus, the performance of a steady state RNA-seq protocol was compared against a nascent RNA sequencing protocol using a breast cancer cell line (MCF7) model and estrogen treatment to elicit a well characterized, widespread transcriptional response driven by ERα and ERβ transcription factors. Briefly, cell cultures were treated with 100 nM estradiol for 15 minutes or left untreated (i.e., untreated controls) and a steady state RNA-seq protocol or the nascent RNA sequencing assay described herein above was performed.",
  "note": "For at least one compound, name, drawing or mass did not settle the structure.",
  "data": [
    {"compound": "C[C@]12CC[C@@H]3c4ccc(O)cc4CC[C@H]3[C@@H]1CC[C@@H]2O", "note": "[estradiol]", "values": [
      {"measurement": "enrichment of differentially expressed genes for the estrogen signaling pathway", "setting": "15 minutes, SNAP-seq, pval 10^−8.6", "result": "highly enriched for genes linked to the estrogen signaling pathway"},
      {"measurement": "level of FOS gene expression (nascent RNA read distribution at the FOS locus)", "setting": "within 15 minutes, versus untreated", "result": "quantitative increase"}
    ]}
  ]
}
